Results as given in patent US6479499B1.
Some entries share one result that the patent states for a list of compounds.

System: bovine brain tubulin
Assay: Tubulin polymerization assay (antimicrotubule assay)
Conditions: read-out: ITP (inhibition of tubulin polymerization) IC50; tubulin […] (12 μM), 26° C., 20 min; listed as compound 65

With `COc1ccc(OC)c(C2NC(=O)c3ccccc3N2)c1` (racemic) [Compound 65, 2,3-Dihydro-2-(2′,5′-dimethoxyphenyl)-4-quinazolinone] the IC50 was over 40 µM.
